PubChem BioAssay AID2685 (National Center for Advancing Translational Sciences (NCATS), 2010)
This is one part of the list. The main result of the screen is listed elsewhere. These columns were measured beside it and carry no call. The list favours compounds with an active or inconclusive main result. The note in brackets gives the kind of curve behind each potency; many fits are weak.

Assay: qHTS Assay for Lipid Storage Modulators in Drosophila S3 Cells;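 as to cell number change: cells counted by Cell Tracker Red CMTPX staining in the red channel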
Details: BODIPY lipid droplet fluorescence, 18-24 h; for cell number change: measured here: cell count max response, cells fed with added oleic acid
Procedure, shortened: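 Drosophila S3 cells got compounds at several concentrations plus oleic acid (400 uM solution). Laser-scanning cytometry with 488 nm excitation read lipid droplets at 500-530 nm and cells at 575-640 nm. Percent activity was relative to 20 uM Triacsin C.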

[1] = measured here: cell number channel AC50, cells fed with added oleic acid
[2] = measured here: lipid fluorescence (Fed channel) AC50, cells fed with added oleic acid

| Structure (SMILES) | cell number change [%] | AC50 [1] | AC50 [2] |
| --- | --- | --- | --- |
| Cc1ccc(C)c(NS(=O)(=O)c2ccccc2C)c1 | -32.3 | 9.2 µM [falling, partial curve, poor fit] | – |
| COC(=O)c1ccc(OC)c(CSc2nnc(COc3cccc(C)c3)o2)c1 | 21.3 | – | – |
| CCCCCCn1c(-c2cccs2)n[nH]c1=S | – | 0.651 µM [rising, single point] | 4.11 µM [rising, single point] |
| CN1C(C(=O)NCc2ccccc2)CC2Cn3c(nc4cc5ccccc5cc43)C21 (stereo not given) | 11.7 | – | 8.2 µM [rising, partial curve, poor fit] |
| CC(=O)N1CCc2cc(S(=O)(=O)CCC(=O)N3CCN(c4ccccc4F)CC3)ccc21 | -21.6 | – | – |
| O=C(CN1CCN(Cc2ccccc2)CC1)Nc1cccc(Br)c1 | 33.3 | 32.6 µM [rising, single point] | 1.64 µM [rising, partial curve] |
| O=C1NC(=Nc2ccc(Cl)cc2)SC1Cc1cc(Cl)ccc1Cl (stereo not given) | 23.4 | – | 29.1 µM [rising, single point] |
| CN(C)S(=O)(=O)c1ccc(NC(=S)NC(=O)C2CCC2)cc1 | -10.3 | – | 0.631 µM [rising, single point] |
| Cc1cc(NC(=O)c2cccc(F)c2)ncc1NC(=O)c1ccco1 | 7.55 | 6.51 µM [rising, single point] | 2.06 µM [rising, full curve] |
| COC(=O)c1cccc(NC(=O)c2ccc3c(c2)C(=O)N(C(C)(C)C)C3=O)c1 | -36.1 | 11.6 µM [falling, partial curve] | 6.51 µM [falling, single point] |
| CCOC(=O)c1ccc(NC(=O)c2ccccc2C)cc1 | 2.3 | – | 23.1 µM [rising, single point] |
| CC(OC(=O)C1CC1C)C(=O)Nc1ncc(Cl)cc1Cl (stereo not given) | 17.8 | – | – |
| C/C(O)=C(/N=O)C(=O)Nc1ccccc1 | 144 | 14.6 µM [rising, partial curve] | – |
| Cc1csc(N/N=C/c2ccc(O)c([N+](=O)[O-])c2)n1 | -103 | 7.31 µM [falling, partial curve] | 6.51 µM [falling, partial curve] |
| CCCC(O)(CCC)C(=O)NN(C(=O)CCl)c1cccc(C)c1 | – | – | 23.1 µM [falling, single point] |
| CCOc1ccc(NC(=O)CSc2nnc(Cc3cccn3C)n2-c2ccc(F)cc2)cc1 | -3.97 | – | – |
| Cc1ccc(NC(=S)NCCSc2ccc(Cl)cc2)c(C)c1 | 4 | – | 5.17 µM [rising, single point] |
| CC(=O)c1csc(-c2ccccc2)n1 | -34.5 | – | 0.082 µM [falling, partial curve, poor fit] |
| C=CCOc1cccc(NC(=O)c2ccccc2SC)c1 | 19.1 | – | 1.3 µM [falling, single point] |
| CC(C)N1CCC2(CC1)N=C(c1ccc3c(c1)OCO3)CC(c1cc(Cl)ccc1O)N2 (stereo not given) | – | – | 4.11 µM [rising, full curve] |
| O=C(CSc1nc(=O)n(CCN2CCOCC2)c2c1CCCC2)Nc1cccc([N+](=O)[O-])c1 | 1.53 | – | 5.8 µM [falling, full curve, poor fit] |

2 entries drawn at random from those above:

| Structure (SMILES) | cell number change [%] | AC50 [1] | AC50 [2] |
| --- | --- | --- | --- |
| COC(=O)c1ccc(OC)c(CSc2nnc(COc3cccc(C)c3)o2)c1 | 21.3 | – | – |
| C/C(O)=C(/N=O)C(=O)Nc1ccccc1 | 144 | 14.6 µM [rising, partial curve] | – |

The results go on:

| Structure (SMILES) | cell number change [%] | AC50 [1] | AC50 [2] |
| --- | --- | --- | --- |
| Cc1cc2oc(C(=O)NCc3ccccc3)cc(=O)c2cc1C | 10.3 | – | 6.51 µM [falling, single point] |
| CCOc1ccc(-c2nc(-c3ccc(OC)c(OC)c3)no2)cc1OCC | -162 | – | – |
| CCc1csc(CCNC(=O)C2CCC(=O)N(CCOC)C2)n1 (stereo not given) | 15.3 | – | 7.31 µM [rising, partial curve] |
| COc1ccccc1C(=O)Nc1cccc(S(=O)(=O)N2CCCC2)c1 | -4.09 | – | 0.0731 µM [rising, full curve, poor fit] |
| O=C(Nc1ccc(F)cc1)OCCN1CCN(Cc2ccccc2)CCC1=O | 28.9 | – | 29.1 µM [rising, single point] |
| Cc1ccsc1/C=C1\Oc2cc(OCC(=O)c3ccccc3)ccc2C1=O | -15.7 | – | 0.58 µM [rising, full curve] |
| Cc1ccccc1C(C(=O)NC1CCCCC1)N(C(=O)CNC(=O)c1ccco1)c1cccnc1 (stereo not given) | -0.499 | – | – |
| COc1ccc(C(=O)CCC(=O)Nc2cccnc2)cc1OC | 5.88 | – | 29.1 µM [rising, single point] |
| COc1ccc(C(=O)CCNc2ccc(C)c(Cl)c2)cc1 | 9.4 | – | 16.4 µM [rising, partial curve] |
| CCN(CC(=O)NC)S(=O)(=O)c1ccc(C)cc1 | -0.135 | – | 0.164 µM [falling, full curve, poor fit] |
| Cc1ccc(C)c(SCC(=O)OCC(=O)NCCNC(=O)COC(=O)CSc2cc(C)ccc2C)c1 | -26.1 | 1.84 µM [falling, full curve, poor fit] | – |
| CC(NC(=O)c1ccco1)C(c1cccs1)N1CCN(c2ccccc2)CC1 (stereo not given) | 2.94 | 6.51 µM [rising, single point] | – |
| CCCCCCOc1ccc(/C(N)=N/O)cc1 | -12.6 | – | 0.146 µM [falling, full curve] |
| c1ccc(CSc2ccc(-c3cccnc3)nn2)cc1 | 31.7 | – | 6.51 µM [rising, partial curve] |
| CC1CC(C)CN(c2ccc(-n3cnnn3)cc2[N+](=O)[O-])C1 (stereo not given) | -40.2 | – | 16.4 µM [falling, single point] |
| CN(CCOc1ccc(-c2ccn(S(=O)(=O)c3cccc4ccccc34)n2)cc1)c1ccccn1 | – | – | 20.6 µM [rising, single point] |
| CN(C)c1ccc(/C=N/NC(=O)c2cc(-c3ccc4c(c3)OCO4)n[nH]2)cc1 | -21 | – | 0.00651 µM [falling, full curve, poor fit] |
| Cc1c(C(=O)O)sc2nc(/C=C/c3ccccc3OC(F)F)[nH]c(=O)c12 | 0.42 | – | – |
| COc1ccc(CNC(=O)/C=C/c2cc3c(cc2Br)OCO3)cc1 | 10.8 | – | – |
| CCOC(=O)COc1ccc(/C=C2/SC(=Nc3ccccc3)N(Cc3cccnc3)C2=O)cc1OC | 16.7 | – | 29.1 µM [rising, single point] |
